PubChem BioAssay AID1159584, Peter MacCallum Cancer Centre | 2016
Purpose: 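Genes that CDH1-null MCF10A cells selectively depend on to survive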 (primary screen). Cells: human MCF10A breast epithelial cells, parental and CDH1-null. Knock-down reagent: siRNA against human genes. Measurement: 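Cell viability by CellTiter-Glo ATP luminescence, each line scaled to the mean of mock wells across plates, then CDH1-null over parental ratio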. Direction: CDH1-null / parental viability ratio: higher = CDH1-null cells survive relatively better than parental.
In all, the deposit lists about 18,000 reagents; shown is an unselected part. Not all columns of the deposit are shown. The record does not give: the amount of reagent, the time to read-out.

Gene	CDH1-null / parental viability ratio
SLC4A1	0.95
SCARA5 (scavenger receptor class A member 5)	0.84
SUMO4 (small ubiquitin like modifier 4)	0.79
TNNI2 (troponin I2, fast skeletal type)	1.3
IFT54 (intraflagellar transport 54)	1.04
XYLT2 (xylosyltransferase 2)	1.31
ALKBH1 (alkB homolog 1, histone H2A dioxygenase)	1.07
TBC1D10C (TBC1 domain family member 10C)	1.04
UTP14C (UTP14C small subunit processome component)	1.23
CMTR2 (cap methyltransferase 2)	0.85
MID1IP1 (MID1 interacting protein 1)	1
GKAP1 (G kinase anchoring protein 1)	0.96
SCARB1 (scavenger receptor class B member 1)	0.99
SRD5A2 (steroid 5 alpha-reductase 2)	1.18
REEP1 (receptor accessory protein 1)	1.3
CD69 (CD69 molecule)	0.88
FGA (fibrinogen alpha chain)	0.86
NFS1 (NFS1 cysteine desulfurase)	1
MAGEH1 (MAGE family member H1)	1.16
COL27A1 (collagen type XXVII alpha 1 chain)	0.85
ELL3 (elongation factor for RNA polymerase II 3)	0.92
VGLL2 (vestigial like family member 2)	1.35
KIAA2012	1.24
DDAH1 (dimethylarginine dimethylaminohydrolase 1)	1.16
CYP3A4 (cytochrome P450 family 3 subfamily A member 4)	1.02
MFAP5 (microfibril associated protein 5)	0.88
ASCL1 (achaete-scute family bHLH transcription factor 1)	0.9
ITGA4 (integrin subunit alpha 4)	0.98
B9D1 (B9 domain containing 1)	0.95
MINDY4 (MINDY lysine 48 deubiquitinase 4)	1.18
MRPL10 (mitochondrial ribosomal protein L10)	1.16
DCP2 (decapping mRNA 2)	1.26
SPRR2B (small proline rich protein 2B)	0.99
PEBP4 (phosphatidylethanolamine binding protein 4)	0.96
GALR1 (galanin receptor 1)	0.82
SORBS3 (sorbin and SH3 domain containing 3)	0.85
MCC (MCC regulator of Wnt signaling pathway)	1.13
KDM5D (lysine demethylase 5D)	0.93
BARD1 (BRCA1 associated RING domain 1)	0.97
MAFB (MAF bZIP transcription factor B)	1.2
RHBDL2 (rhomboid like 2)	1.07
ARL13A (ARF like GTPase 13A)	1.17
COX7A1 (cytochrome c oxidase subunit 7A1)	1.06
IGSF5 (immunoglobulin superfamily member 5)	1
BRAT1 (BRCA1 associated ATM activator 1)	0.73

Laid out differently: results already given.
UTP14C (UTP14C small subunit processome component)
- CDH1-null / parental viability ratio: 1.23

CMTR2 (cap methyltransferase 2)
- CDH1-null / parental viability ratio: 0.85

MID1IP1 (MID1 interacting protein 1)
- CDH1-null / parental viability ratio: 1

GKAP1 (G kinase anchoring protein 1)
- CDH1-null / parental viability ratio: 0.96

SCARB1 (scavenger receptor class B member 1)
- CDH1-null / parental viability ratio: 0.99

SRD5A2 (steroid 5 alpha-reductase 2)
- CDH1-null / parental viability ratio: 1.18

REEP1 (receptor accessory protein 1)
- CDH1-null / parental viability ratio: 1.3

CD69 (CD69 molecule)
- CDH1-null / parental viability ratio: 0.88

Further results follow:
Gene	CDH1-null / parental viability ratio
CIMIP6 (ciliary microtubule inner protein 6)	1.08
SKP2 (S-phase kinase associated protein 2)	0.97
PLEK2 (pleckstrin 2)	1.26
ZNF470 (zinc finger protein 470)	0.91
ADGRG4 (adhesion G protein-coupled receptor G4)	0.99
PLB1 (phospholipase B1)	0.86
VAT1L (vesicle amine transport 1 like)	0.97
SEMA6B (semaphorin 6B)	1
WNK4 (WNK lysine deficient protein kinase 4)	0.85
KRTAP20-1 (keratin associated protein 20-1)	1.12
KNG1 (kininogen 1)	0.81
PCNA (proliferating cell nuclear antigen)	1.08
TRIM4 (tripartite motif containing 4)	0.81
KBTBD2 (kelch repeat and BTB domain containing 2)	0.71
TMEM63B (transmembrane protein 63B)	0.9
ANKS4B (ankyrin repeat and sterile alpha motif domain containing 4B)	1.05
LHX2 (LIM homeobox 2)	0.7
ABHD8 (abhydrolase domain containing 8)	1
ABHD16A (abhydrolase domain containing 16A, phospholipase)	1.1
ACSM2A (acyl-CoA synthetase medium chain family member 2A)	0.88
VSIR (V-set immunoregulatory receptor)	1.19
EDN3 (endothelin 3)	0.71
HS3ST1 (heparan sulfate-glucosamine 3-sulfotransferase 1)	1.1
